These results are taken from article PMC4722453.

Chains of the proteins cited; added tags and fusions are not shown. Residues count along the entry.
UniProt P23819, residues 25-883: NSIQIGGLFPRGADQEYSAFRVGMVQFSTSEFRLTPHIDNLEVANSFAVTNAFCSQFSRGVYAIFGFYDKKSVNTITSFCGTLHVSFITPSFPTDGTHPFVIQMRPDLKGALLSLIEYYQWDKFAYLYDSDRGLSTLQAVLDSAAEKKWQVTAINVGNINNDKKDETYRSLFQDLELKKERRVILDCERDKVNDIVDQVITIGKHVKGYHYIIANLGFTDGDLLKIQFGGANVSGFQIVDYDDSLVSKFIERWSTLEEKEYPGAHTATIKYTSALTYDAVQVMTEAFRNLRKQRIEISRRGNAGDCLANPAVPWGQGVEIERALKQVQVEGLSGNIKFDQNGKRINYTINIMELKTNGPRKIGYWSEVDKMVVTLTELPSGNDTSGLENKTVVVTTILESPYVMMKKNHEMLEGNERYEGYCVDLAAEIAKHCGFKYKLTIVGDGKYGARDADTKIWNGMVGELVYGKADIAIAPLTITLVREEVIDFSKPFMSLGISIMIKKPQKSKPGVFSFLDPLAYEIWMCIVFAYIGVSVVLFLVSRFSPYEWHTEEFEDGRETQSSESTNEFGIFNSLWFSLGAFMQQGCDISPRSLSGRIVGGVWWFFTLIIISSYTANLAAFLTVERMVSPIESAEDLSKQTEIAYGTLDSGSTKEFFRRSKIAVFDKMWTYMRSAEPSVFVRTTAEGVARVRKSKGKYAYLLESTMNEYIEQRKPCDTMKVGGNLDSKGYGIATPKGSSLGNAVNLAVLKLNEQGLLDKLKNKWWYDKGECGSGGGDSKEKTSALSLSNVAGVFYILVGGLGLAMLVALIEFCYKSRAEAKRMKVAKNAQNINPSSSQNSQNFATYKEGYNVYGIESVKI

For the test, the target named is AMPA-type glutamate receptor subunit GluA2 (mouse (endogenous in primary hippocampal neurons)) (UniProt P23819). In words: proximity ligation; Duolink in situ PLA on fixed, permeabilized primary hippocampal mouse neurons (transfected at DIV 7, assayed at DIV 14); goat anti-EphB2 and mouse anti-GluA2; signal only when the antigens are in close proximity (<40 nm); quantified in cell bodies of GFP-positive neurons; some cultures treated with Aβ oligomers (2 μM, 24 h) or TTX (1 μM, 6 h).

No constants are given. Whether binding was seen depends on the method and setting. In cells and extracts the contact can be indirect. A result given as binding can be weak or reduced; the word gives no strength.

In the case of “FLAG-tagged EphB2 lacking the PDZ-binding motif (EphB2^ΔPDZ) (from UniProt P54763) (receptor)”, the binding result was “binds”.
